Assay results: patent EP2808342B1, “Medium for in-vitro toxicity testing and in-vitro toxicity test method using the same” (priority 2013, dated 2014)

Test system: N2a cells
Test: Toxicity test (CCK-8 cell proliferation assay) on 3D cell clusters grown on REP-coated plates
Format: cell-based
Conditions: ratio of IC50, Cell Cluster of Ex. 2 (A) / Cultured Cell of C. Ex. 1 (B)
Method: REP was dissolved at a concentration of 10 µM in phosphate buffered saline (PBS), and the 10 µM REP solution was aliquoted in an amount of 50 µl per well into 96-well polystyrene plates and incubated for 1 hr at 37°C. The supernatant was removed from each well to leave REP to adhere to the plates.
N2a cells ([…], purchased from the ATCC, USA) were seeded at a density of 5x10^5 cells/well into the culture plates coated with REP prepared in Example 1 (hereinafter referred to as "REP-plate"). The cell culture medium was Eagle's Minimum Essential Medium (EMEM) supplemented with 2 mM glutamine, 1 mM sodium pyruvate, 1.5 g/l sodium bicarbonate, 100 units/ml penicillin and 100 µg/ml streptomycin. The REP-plates where N2a cells were seeded were incubated for 3 days at 37°C in a 5% CO2 atmosphere with humidity of 95% to afford the formation of 3D cell clusters.
To the cell clusters obtained in Example 2 or the cells obtained in Comparative Example 1 was added a solution of PFOA (perfluorooctanoic acid, Mw 414.1 g/mol, Sigma-Aldrich, 171468-5G, 96%) with a concentration of 5 µM, 20 µM, 50 µM, 100 µM, 200 µM, 300 µM, 400 µM, 500 µM, 600 µM, 700 µM, 800 µM, 900 µM, 1,000 µM or 2,000 µM. After 3, 24 or 48 hrs of incubation, the cells were assayed for proliferation using a cell counting kit-8 (CCK-8, Dojindo, Japan).
The PFOA solution was made by dissolving PFOA in dimethyl sulfoxide (DMSO, Sigma-Aldrich, USA) at a final concentration of 5 µM, 20 µM, 50 µM, 100 µM, 200 µM, 300 µM, 400 µM, 500 µM, 600 µM, 700 µM, 800 µM, 900 µM, 1,000 µM or 2,000 µM.
For the cell proliferation assay, absorbance (OD) at 450 nm was measured on an amicroplate reader (Multiskan, Thermo USA). From the measurements, inhibitory concentration (IC50) values were calculated using TOXCALC 5.0 (Tidepool Scientific Software, USA).
A solution of PFOS (perfluorooctane sulfonates; Mw 538.2, Sigma-Aldrich, 77282-10G, ≥98.0 (T)) with a concentration of 5 µM, 20 µM, 50 µM, 100 µM, 200 µM, 300 µM, 400 µM, 500 µM, 600 µM, 700 µM, 800 µM, 900 µM, 1,000 µM or 2, 000 µM was added to the cell clusters obtained in Example 2 and to the cells obtained in Comparative Example 1. After 3, 24 or 48 hrs of incubation, the cells were assayed for proliferation using a cell counting kit-8 (CCK-8, Dojindo, Japan).
The PFOS solution was made by dissolving PFOS in dimethyl sulfoxide (DMSO, Sigma-Aldrich, USA) at a final concentration of 5 µM, 20 µM, 50 µM, 100 µM, 200 µM, 300 µM, 400 µM, 500 µM, 600 µM, 700 µM, 800 µM, 900 µM, 1,000 µM or 2,000 µM.

SMILES	A/B (3 hrs)	A/B (24 hrs)	A/B (48 hrs)
O=C(O)C(F)(F)C(F)(F)C(F)(F)C(F)(F)C(F)(F)C(F)(F)C(F)(F)F [PFOA, perfluorooctanoic acid]	1.24	1.27	1.37
O=S(=O)(O)C(F)(F)C(F)(F)C(F)(F)C(F)(F)C(F)(F)C(F)(F)C(F)(F)C(F)(F)F [PFOS, perfluorooctane sulfonates]	2.41	1.62	1.37
